This note sets out measurements from publication PMC11119796.

The target of this test is T1, ISLR (construct not stated) (UniProt Q6GU68).
T1 sequence: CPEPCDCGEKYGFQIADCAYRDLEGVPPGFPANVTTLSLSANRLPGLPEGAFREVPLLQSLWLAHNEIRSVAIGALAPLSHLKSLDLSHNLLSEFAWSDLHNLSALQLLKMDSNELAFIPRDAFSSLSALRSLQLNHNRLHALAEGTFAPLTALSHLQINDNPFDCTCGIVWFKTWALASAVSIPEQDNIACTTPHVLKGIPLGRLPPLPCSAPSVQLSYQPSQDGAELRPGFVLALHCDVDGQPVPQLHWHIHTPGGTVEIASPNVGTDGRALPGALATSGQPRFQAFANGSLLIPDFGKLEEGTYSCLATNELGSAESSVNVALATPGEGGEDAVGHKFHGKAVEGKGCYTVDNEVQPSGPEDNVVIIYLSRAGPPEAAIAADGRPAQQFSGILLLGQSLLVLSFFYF
In words: co-IP; co-IP of ISLR to identify interacting metabolic enzymes; cells, construct and way of identification not stated.

Results are given in words; binding and its absence hold for the method and conditions named. In cells and extracts the contact can be indirect. Binding can be weak; no strength is given.

Pyruvate kinase (enzyme): the binding result is “binds”.
